Source: publication PMC4566084
These are yes or no findings as the source states them, for the method shown. In cells and extracts the contact can be indirect. Some entries that bind do so weakly or less than the wild type. Sequences can lack the tags named with a protein.

Protein sequences, listed by entry. Tags and fused reporters are not part of them. Lines headed by an entry give the natural chain unless they say otherwise; changes in a name come on top.
UniProt Q15797: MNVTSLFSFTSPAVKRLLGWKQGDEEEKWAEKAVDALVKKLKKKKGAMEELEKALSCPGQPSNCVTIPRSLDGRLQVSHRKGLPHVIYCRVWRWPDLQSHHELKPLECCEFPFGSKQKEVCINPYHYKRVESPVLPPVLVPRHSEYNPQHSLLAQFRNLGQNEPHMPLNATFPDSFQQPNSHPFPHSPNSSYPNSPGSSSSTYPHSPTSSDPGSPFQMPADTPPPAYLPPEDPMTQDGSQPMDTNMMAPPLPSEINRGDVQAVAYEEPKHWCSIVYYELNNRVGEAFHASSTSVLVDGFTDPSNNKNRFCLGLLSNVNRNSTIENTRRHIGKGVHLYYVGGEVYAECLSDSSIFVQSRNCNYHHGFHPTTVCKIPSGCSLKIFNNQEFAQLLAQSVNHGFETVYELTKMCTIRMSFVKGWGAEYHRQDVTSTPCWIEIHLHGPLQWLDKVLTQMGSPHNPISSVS
UniProt Q7Z3T8: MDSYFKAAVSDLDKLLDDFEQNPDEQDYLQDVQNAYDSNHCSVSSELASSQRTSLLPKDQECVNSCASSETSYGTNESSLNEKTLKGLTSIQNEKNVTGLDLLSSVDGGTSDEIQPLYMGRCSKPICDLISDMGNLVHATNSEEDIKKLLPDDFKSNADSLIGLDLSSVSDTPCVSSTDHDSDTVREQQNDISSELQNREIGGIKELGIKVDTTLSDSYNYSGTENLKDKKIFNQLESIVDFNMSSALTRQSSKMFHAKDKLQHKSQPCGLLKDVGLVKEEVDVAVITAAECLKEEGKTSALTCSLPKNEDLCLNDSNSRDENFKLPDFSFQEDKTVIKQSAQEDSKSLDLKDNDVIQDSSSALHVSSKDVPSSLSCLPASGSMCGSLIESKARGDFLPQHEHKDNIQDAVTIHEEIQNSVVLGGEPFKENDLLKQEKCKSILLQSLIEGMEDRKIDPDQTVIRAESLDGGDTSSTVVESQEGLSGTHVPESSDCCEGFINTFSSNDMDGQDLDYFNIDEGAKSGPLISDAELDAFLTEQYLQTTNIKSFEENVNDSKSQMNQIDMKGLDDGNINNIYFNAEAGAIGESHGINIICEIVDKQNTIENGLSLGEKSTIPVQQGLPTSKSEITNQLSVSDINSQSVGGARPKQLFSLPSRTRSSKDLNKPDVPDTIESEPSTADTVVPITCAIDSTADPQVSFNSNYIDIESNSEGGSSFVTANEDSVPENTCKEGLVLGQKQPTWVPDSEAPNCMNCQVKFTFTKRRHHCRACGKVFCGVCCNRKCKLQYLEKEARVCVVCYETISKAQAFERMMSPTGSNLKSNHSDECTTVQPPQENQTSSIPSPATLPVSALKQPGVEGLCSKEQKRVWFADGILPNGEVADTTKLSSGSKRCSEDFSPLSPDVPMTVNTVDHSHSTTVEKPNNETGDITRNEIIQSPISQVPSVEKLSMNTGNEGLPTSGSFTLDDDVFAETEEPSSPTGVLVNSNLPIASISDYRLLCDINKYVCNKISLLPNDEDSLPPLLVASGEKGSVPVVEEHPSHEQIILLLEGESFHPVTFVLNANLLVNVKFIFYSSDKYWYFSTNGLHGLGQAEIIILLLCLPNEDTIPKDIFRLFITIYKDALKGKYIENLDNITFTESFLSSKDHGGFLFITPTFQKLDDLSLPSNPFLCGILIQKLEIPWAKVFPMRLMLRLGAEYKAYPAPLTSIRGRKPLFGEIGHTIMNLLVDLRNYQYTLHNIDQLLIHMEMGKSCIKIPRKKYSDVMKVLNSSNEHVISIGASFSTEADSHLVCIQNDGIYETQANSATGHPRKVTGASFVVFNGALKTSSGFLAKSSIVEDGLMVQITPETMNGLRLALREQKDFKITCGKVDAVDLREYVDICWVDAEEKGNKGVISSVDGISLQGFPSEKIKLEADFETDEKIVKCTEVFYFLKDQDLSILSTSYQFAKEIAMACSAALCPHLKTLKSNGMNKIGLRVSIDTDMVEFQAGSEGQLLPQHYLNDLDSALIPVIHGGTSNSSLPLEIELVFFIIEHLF

B1: myc-tagged SARA (SMAD anchor for receptor activation) (protein, UniProt O95405 1-1425)
chain: MENYFQAEAYNLDKVLDEFEQNEDETVSSTLLDTKWNKILDPPSHRLSFNPTLASVNESAVSNESQPQLKVFSLAHSAPLTTEEEDHCANGQDCNLNPEIATMWIDENAVAEDQLIKRNYSWDDQCSAVEVGEKKCGNLACLPDEKNVLVVAVMHNCDKRTLQNDLQDCNNYNSQSLMDAFSCSLDNENRQTDQFSFSINESTEKDMNSEKQMDPLNRPKTEGRSVNHLCPTSSDSLASVCSPSQLKDDGSIGRDPSMSAITSLTVDSVISSQGTDGCPAVKKQENYIPDEDLTGKISSPRTDLGSPNSFSHMSEGILMKKEPAEESTTEESLRSGLPLLLKPDMPNGSGRNNDCERCSDCLVPNEVRADENEGYEHEETLGTTEFLNMTEHFSESQDMTNWKLTKLNEMNDSQVNEEKEKFLQISQPEDTNGDSGGQCVGLADAGLDLKGTCISESEECDFSTVIDTPAANYLSNGCDSYGMQDPGVSFVPKTLPSKEDSVTEEKEIEESKSECYSNIYEQRGNEATEGSGLLLNSTGDLMKKNYLHNFCSQVPSVLGQSSPKVVASLPSISVPFGGARPKQPSNLKLQIPKPLSDHLQNDFPANSGNNTKNKNDILGKAKLGENSATNVCSPSLGNISNVDTNGEHLESYEAEISTRPCLALAPDSPDNDLRAGQFGISARKPFTTLGEVAPVWVPDSQAPNCMKCEARFTFTKRRHHCRACGKVFCASCCSLKCKLLYMDRKEARVCVICHSVLMNAQAWENMMSASSQSPNPNNPAEYCSTIPPLQQAQASGALSSPPPTVMVPVGVLKHPGAEVAQPREQRRVWFADGILPNGEVADAAKLTMNGTSSAGTLAVSHDPVKPVTTSPLPAETDICLFSGSITQVGSPVGSAMNLIPEDGLPPILISTGVKGDYAVEEKPSQISVMQQLEDGGPDPLVFVLNANLLSMVKIVNYVNRKCWCFTTKGMHAVGQSEIVILLQCLPDEKCLPKDIFNHFVQLYRDALAGNVVSNLGHSFFSQSFLGSKEHGGFLYVTSTYQSLQDLVLPTPPYLFGILIQKWETPWAKVFPIRLMLRLGAEYRLYPCPLFSVRFRKPLFGETGHTIMNLLADFRNYQYTLPVVQGLVVDMEVRKTSIKIPSNRYNEMMKAMNKSNEHVLAGGACFNEKADSHLVCVQNDDGNYQTQAISIHNQPRKVTGASFFVFSGALKSSSGYLAKSSIVEDGVMVQITAENMDSLRQALREMKDFTITCGKADAEEPQEHIHIQWVDDDKNVSKGVVSPIDGKSMETITNVKIFHGSEYKANGKVIRWTEVFFLENDDQHNCLSDPADHSRLTEHVAKAFCLALCPHLKLLKEDGMTKLGLRVTLDSDQVGYQAGSNGQPLPSQYMNDLDSALVPVIHGGACQLSEGPVVMELIFYILENIV

Target: SMAD1 (human (endogenous in HepG2/C3A)) (UniProt Q15797)
Experiment: proximity ligation; Duolink PLA in fixed, permeabilised HepG2/C3A cells transfected 48 hr with myc-tagged endofin or myc-tagged SARA; mouse anti-Myc paired with rabbit anti-SMAD1 or rabbit anti-SMAD2/3; proteins in close proximity (<40 nm)

Molecule | binding
myc-tagged endofin (endosome-associated FYVE-domain protein) (from UniProt Q7Z3T8 1-1539) | binds
B1 | no binding
